{"sequences": {"note": "Amino acid sequences for entries named in this document (tags omitted). A change or cut given only in a name is not applied to a line headed by its entry.", "UniProt P18054": "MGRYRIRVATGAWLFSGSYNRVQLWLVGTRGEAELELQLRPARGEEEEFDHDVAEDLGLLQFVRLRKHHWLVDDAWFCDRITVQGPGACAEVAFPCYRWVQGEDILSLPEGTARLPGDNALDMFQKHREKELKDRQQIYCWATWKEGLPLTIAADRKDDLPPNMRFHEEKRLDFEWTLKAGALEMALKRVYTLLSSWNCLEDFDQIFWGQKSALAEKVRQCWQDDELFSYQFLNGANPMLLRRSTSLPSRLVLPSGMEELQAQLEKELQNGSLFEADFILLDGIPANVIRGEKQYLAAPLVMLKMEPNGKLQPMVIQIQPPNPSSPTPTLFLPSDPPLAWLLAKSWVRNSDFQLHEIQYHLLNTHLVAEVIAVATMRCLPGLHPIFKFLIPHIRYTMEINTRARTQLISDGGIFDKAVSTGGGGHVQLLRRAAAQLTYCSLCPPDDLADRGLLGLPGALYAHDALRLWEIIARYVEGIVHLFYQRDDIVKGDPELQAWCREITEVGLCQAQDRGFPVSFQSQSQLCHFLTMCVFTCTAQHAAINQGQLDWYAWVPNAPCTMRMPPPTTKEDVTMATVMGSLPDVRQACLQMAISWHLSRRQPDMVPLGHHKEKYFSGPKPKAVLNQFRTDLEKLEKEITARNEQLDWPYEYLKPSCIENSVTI"}, "source": "PubChem BioAssay AID1671190", "about": "(National Center for Advancing Translational Sciences (NCATS), 2021)", "note": "The whole screen tested about 580,000 compounds, of which about 6,100 (1.1%) were called active. The shares of active, inactive and inconclusive entries below differ from those in the screen. Calls come from the whole dose curve; as a rule, active = well fitted inhibition curve with a large enough effect; inconclusive = small, poorly fitted or top-dose-only effect, or another doubt; inactive = no such curve, though single readings can be large or run the other way. A potency beside an inconclusive call is a rough fit, not a confirmed value. % is set by controls: 0 for no effect and ±100 for the full control effect; potency is the fitted concentration of half-maximal effect."}
{"molecular_target": "Polyunsaturated fatty acid lipoxygenase ALOX12 (Homo sapiens) (UniProt P18054)", "assay": "Primary qHTS assay for inhibitors of human arachidonate 12S-lipoxygenase (ALOX12): Round 2", "conditions": "purified 12hLO, xylenol orange hydroperoxide absorbance; activity change, negative = inhibition: at 108 µM (top of the series) unless noted", "procedure,_shortened": "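Purified human 12hLO at 150 nM in 25 mM Hepes, 0.01% Triton X-100, pH 7.0, preincubated 15 min at room temperature with compound. Reaction started with 40 uM arachidonic acid, 30 min at room temperature. Hydroperoxide measured by Fe-xylenol orange, 573/405 nm absorbance ratio.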"}
{"molecule": "O=C(CC(F)(F)F)NCCc1ccccn1", "activity change, negative = inhibition": "inactive: 0.382%"}
{"molecule": "COc1cc(NC(=O)Cc2c(C(=O)O)n(C)c3ccccc23)cc(OC)c1OC", "Potency": "inconclusive: 25.1 µM [inhibitor, partial curve, poor fit]"}
{"molecule": "COC(=O)c1cc(-c2ccco2)nc2c(C)cccc12", "Potency": "inconclusive: 6.31 µM [inhibitor, full curve, poor fit]"}
{"molecule": "CCCCCCOc1ccc(/C=C/C(=O)c2ccc(OC)c(CSCC(=O)O)c2)cc1", "activity change, negative = inhibition": "inactive: -21.3%"}
{"molecule": "COc1cccc(C(=O)N2CCc3nc(C4CC4)nc(-c4ccc(Cl)cc4)c3C2)c1", "Potency": "active: 10 µM"}
{"molecule": "Cc1ccc(CNC(=O)CN2NS(=O)(=O)c3ccccc3C2=O)cc1", "Potency": "active: 20 µM"}
{"molecule": "O=C(c1cnccn1)N1CC(c2nnc(-c3ccncc3)o2)C2(CCOCC2)C1", "note": "(stereo not drawn)", "Potency": "inconclusive: 39.8 µM [inhibitor, partial curve, poor fit]"}
{"molecule": "C=CCN(CC=C)Cc1cc(=O)oc2cc(C)c(Cl)cc12", "Potency": "inconclusive: 39.8 µM [inhibitor, partial curve, poor fit]"}
{"molecule": "Cc1ccc(NC(=O)C2CCCN2S(=O)(=O)c2ccc3nc(-c4ccccc4)[nH]c3c2)cc1F", "note": "(stereo not drawn)", "Potency": "inconclusive: 50.1 µM [inhibitor, partial curve, poor fit]"}
{"molecule": "COc1ccc(-c2nc3nccc(-c4ccsc4)n3n2)c(OC)c1", "Potency": "inconclusive: 10 µM [inhibitor, full curve, poor fit]"}
{"molecule": "Cn1cccc1Cc1nnc(SCC(=O)Nc2nccs2)n1CCc1ccccc1", "activity change, negative = inhibition": "inactive: 182%"}
{"molecule": "COc1ccc2c(c1)C1NC(=S)NC(C)(O2)C1C(=O)Nc1ccc(C)cc1C", "note": "(stereo not drawn)", "Potency": "inconclusive: 50.1 µM [inhibitor, partial curve, poor fit]"}
{"molecule": "COc1ccc(C(C(=O)Nc2c(C)cccc2C)n2c(=O)c(-c3ccccc3)nc3ccccc32)cc1", "note": "(stereo not drawn)", "Potency": "inconclusive: 22.4 µM [inhibitor, partial curve, poor fit]"}
{"molecule": "CCN(C(=O)c1sc2nc3n(c(=O)c2c1C)CCCCC3)c1ccccc1", "activity change, negative = inhibition": "inactive: 8.56%"}
{"molecule": "COc1ccc(NC(=S)Nc2ccc3nc(C)c(C)nc3c2)cc1", "activity change, negative = inhibition": "inactive: -18.8%"}
{"molecule": "c1ccc(-c2sc(-c3ccccc3)c(-c3ccccc3)c2-c2ccccc2)cc1", "Potency": "inconclusive: 44.7 µM [inhibitor, partial curve, poor fit]"}
{"molecule": "Cc1ccc(C)c(S(=O)(=O)NCCc2ccc(Cl)cc2)c1", "Potency": "inconclusive: 39.8 µM [inhibitor, partial curve, poor fit]"}
{"molecule": "O=C(Cc1ccccc1F)N(Cc1ccco1)C1CC1", "Potency": "inconclusive: 0.501 µM [inhibitor, full curve, poor fit]"}
